According to patent US9345804B2, “S-nitrosothiol-generating skin dressings” (Insense Limited, priority 2007, dated 2016):

Key:
[1] = Rate of nitrosylation of 1-thioglycerol by nitrite, direct absorbance measurement at 338 nm; type: physicochemical; conditions: pH 4.0
[2] = Rate of nitrosylation of 1-thioglycerol by nitrite, Griess method (absorbance 496 nm); type: physicochemical; conditions: pH 4.0 and pH 4.5, nitrite 5 mM, 1-thioglycerol 5 mM, citrate buffer

In the case of `[Zn+2]` [zinc cations], the “rate of nitrosylation (absorbance 338 nm)” value ([1]; 100 μM zinc cations, nitrite 5 mM, 1-thioglycerol 5 mM, citrate buffer) is reported as “increased” and the “increase in nitrosylation rate (absorbance 338 nm)” value ([1]; 250 μM zinc cations, compared with 100 μM) is reported as “more marked”.
With `[Fe+2]` [ferrous cations] the “nitrosylation rate (Griess method, absorbance 496 nm)” value ([2]; 100 μM ferrous cations) was “increase” and the “nitrosylation rate (Griess method, absorbance 496 nm)” value ([2]; 250 μM ferrous cations) was “increase”.
